The test deals with recombinant human miniplasminogen (human) (UniProt P00747). In words: incubation in culture supernatant, complex read out by amidolytic activity on chromogenic substrate S2403.

Chains of the proteins cited; added tags and fusions are not shown. Lines headed by an entry give the natural chain unless they say otherwise; changes in a name come on top. Residues count along the entry.
UniProt P00747: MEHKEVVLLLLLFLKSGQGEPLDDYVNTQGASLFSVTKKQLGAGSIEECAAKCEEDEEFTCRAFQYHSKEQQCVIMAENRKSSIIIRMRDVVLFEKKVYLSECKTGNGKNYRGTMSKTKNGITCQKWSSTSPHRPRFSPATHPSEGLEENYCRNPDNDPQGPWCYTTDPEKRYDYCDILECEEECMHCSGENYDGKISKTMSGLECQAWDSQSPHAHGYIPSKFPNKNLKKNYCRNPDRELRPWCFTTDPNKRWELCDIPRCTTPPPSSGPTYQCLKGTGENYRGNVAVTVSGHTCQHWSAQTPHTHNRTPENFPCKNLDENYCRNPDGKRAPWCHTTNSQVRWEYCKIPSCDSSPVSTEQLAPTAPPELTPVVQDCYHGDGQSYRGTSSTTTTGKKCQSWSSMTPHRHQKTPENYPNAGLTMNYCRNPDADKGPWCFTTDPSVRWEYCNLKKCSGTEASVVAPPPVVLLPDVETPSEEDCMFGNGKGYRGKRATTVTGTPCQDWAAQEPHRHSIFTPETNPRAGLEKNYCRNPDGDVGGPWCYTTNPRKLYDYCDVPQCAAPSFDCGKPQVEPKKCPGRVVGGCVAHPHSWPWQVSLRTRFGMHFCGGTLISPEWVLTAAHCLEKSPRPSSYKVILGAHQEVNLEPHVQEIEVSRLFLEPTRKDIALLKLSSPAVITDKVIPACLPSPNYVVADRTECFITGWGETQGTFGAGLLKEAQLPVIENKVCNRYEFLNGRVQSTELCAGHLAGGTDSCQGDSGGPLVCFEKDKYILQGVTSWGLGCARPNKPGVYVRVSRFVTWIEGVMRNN
UniProt P00779, residues 27-440: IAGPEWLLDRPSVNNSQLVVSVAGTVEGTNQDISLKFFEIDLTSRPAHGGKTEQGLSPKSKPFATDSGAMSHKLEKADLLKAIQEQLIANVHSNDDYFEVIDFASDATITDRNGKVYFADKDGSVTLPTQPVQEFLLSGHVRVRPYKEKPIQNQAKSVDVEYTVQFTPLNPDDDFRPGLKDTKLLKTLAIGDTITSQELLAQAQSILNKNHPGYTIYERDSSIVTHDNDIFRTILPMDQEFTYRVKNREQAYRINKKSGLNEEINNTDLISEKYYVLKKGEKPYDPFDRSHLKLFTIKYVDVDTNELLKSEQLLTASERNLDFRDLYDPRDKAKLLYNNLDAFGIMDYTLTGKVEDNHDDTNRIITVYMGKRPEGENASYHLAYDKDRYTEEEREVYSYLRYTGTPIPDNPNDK

No constants are given. Whether binding was seen depends on the method and setting. Some entries that bind do so weakly or less than the wild type.

In the case of “streptokinase (from UniProt P00779 27-440)”, the binding result was “binds”.

For the origin of these results see patent US20090074739A1.
